Laboratory results published in PubChem BioAssay AID2685 (National Center for Advancing Translational Sciences (NCATS), 2010).
Some of the results follow. The main result of the screen is listed elsewhere. These columns were measured beside it and carry no call. Most of these compounds were active or inconclusive in the main read-out, so they are no random draw. The note in brackets gives the kind of curve behind each potency; many fits are weak.

Assay: qHTS Assay for Lipid Storage Modulators in Drosophila S3 Cells;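 on cell number change: cells counted by Cell Tracker Red CMTPX staining in the red channel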
Settings: BODIPY lipid droplet fluorescence, 18-24 h; for cell number change: measured here: cell count max response, cells fed with added oleic acid
Outline: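 Drosophila S3 cells got compounds at several concentrations plus oleic acid (400 uM solution). Laser-scanning cytometry with 488 nm excitation read lipid droplets at 500-530 nm and cells at 575-640 nm. Percent activity was relative to 20 uM Triacsin C.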

[1] = measured here: lipid fluorescence (Fed channel) AC50, cells fed with added oleic acid
[2] = measured here: cell number channel AC50, cells fed with added oleic acid

Compound	cell number change	AC50 [1]	AC50 [2]
CCCCN(CCCC)CCNC(=O)c1cn(CC)c2ccc(S(=O)(=O)N(C)C3CCCCC3)cc2c1=O	8.78%	11.6 µM [falling, single point]	–
Cc1sc2nc[nH]c(=O)c2c1-c1ccc(Cl)cc1	-7.14%	2.06 µM [falling, single point]	–
COc1ccc(OCCN2CCN(C(=O)c3ccc(OC)cc3)CC2)cc1	8.33%	0.58 µM [rising, single point]	–
c1ccc2c(c1)CC(CN1CCNCC1)O2 (centres undefined)	21.8%	0.58 µM [falling, single point]	–
O=C(Cn1cc([N+](=O)[O-])cn1)NC1CCCCCC1	2.86%	6.51 µM [falling, single point]	–
O=C(Nc1sc2c(c1C(=O)NCc1ccco1)CCCC2)c1ccc2c(c1)OCO2	–	0.82 µM [rising, partial curve, poor fit]	0.00651 µM [rising, full curve, poor fit]
O=C(NNC(=O)c1cccnc1)NC1CCCCC1	39.6%	29.1 µM [rising, single point]	8.2 µM [rising, partial curve, poor fit]
Cc1ccc(N2C(=O)CC(Sc3cccs3)C2=O)cc1 (centres undefined)	-6.74%	6.51 µM [falling, single point]	–
COc1ccc(OC)c(S(=O)(=O)N2CCC(C(=O)NCCc3ccc(OC)c(OC)c3)CC2)c1	85.8%	23.1 µM [rising, single point]	18.4 µM [rising, single point]
CC(C)COc1ccc(C(=O)Nc2ccc(N3CCOCC3)cc2N2CCOCC2)cc1	-51.5%	10 µM [falling, partial curve]	5.01 µM [falling, partial curve]
Cc1nnc2ccc(-c3ccc(NC(=O)c4ccc(Cl)nc4)cc3)nn12	-9.34%	0.0517 µM [falling, full curve, poor fit]	–
CCOC(=O)c1c(CN2CCN(Cc3ccccc3)CC2)n(C)c2cc(Br)c(OC)cc12	90.6%	–	0.517 µM [rising, full curve, poor fit]
O=C(CSc1ncnc2nc[nH]c12)NCCc1ccccc1	-22.5%	0.651 µM [falling, full curve, poor fit]	–
C=C(C)Cn1c(=O)c2c(nc3n2CCN3c2cccc(Cl)c2C)n(C)c1=O	-28.5%	–	–
CCOC(=O)N1CCN(C(=O)c2ccc(NS(=O)(=O)c3ccc(C)cc3)cc2)CC1	–	0.103 µM [falling, full curve, poor fit]	–
Cc1ccc(Cn2nnnc2CN2CCC(NC(=O)C(C)(C)C)CC2)cc1	-46.7%	20.6 µM [falling, single point]	29.1 µM [falling, single point]
CCN(Cc1ccncc1)C(=O)c1cc(COc2ccc(F)cc2Cl)on1	10.8%	–	–
CCn1c(=O)c2sccc2n(CC(=O)NC2CCCC2)c1=O	2.08%	0.58 µM [falling, partial curve, poor fit]	–
CC(C)CN(C(=O)CN1C(=O)C2CCCCC2C1=O)c1c(N)n(Cc2ccccc2)c(=O)[nH]c1=O (centres undefined)	-3.76%	1.64 µM [falling, partial curve]	–

Compound	cell number change	AC50 [1]	AC50 [2]
NS(=O)(=O)c1ccc(CCNC(=O)COC(=O)/C=C/c2ccccc2Cl)cc1	-15.7%	0.0291 µM [falling, full curve, poor fit]	–
CC(OC(=O)C1COc2ccccc2O1)C(=O)N(C)c1ccccc1 (centres undefined)	-10.3%	0.291 µM [falling, full curve, poor fit]	–
Cc1cccc(C)c1NC(=O)c1cn(-c2ccccc2)nc1-c1ccccc1	19.6%	2.06 µM [rising, full curve]	0.411 µM [rising, full curve, poor fit]
Cc1cc(C(=O)OCC(=O)NC2CC2)c2ccccc2n1	-14.2%	0.731 µM [falling, full curve]	–
CCn1ccnc1C(O)c1ccc(N(C)C)cc1 (centres undefined)	6.9%	6.51 µM [falling, single point]	–
CCCCn1cnc2c(cnn2-c2ccc(F)cc2)c1=O	-30.7%	–	32.6 µM [falling, single point]
COc1cc2c(cc1OC)C(C)N(C(=O)C1=NN(c3cccc(C)c3)C(=O)CC1)CC2 (centres undefined)	13.8%	0.206 µM [rising, full curve]	–
COCCNC(=O)Cn1c(=O)n(CCCCCC(=O)NCc2ccc3c(c2)OCO3)c(=O)c2sccc21	38%	6.51 µM [rising, full curve]	3.26 µM [rising, full curve, poor fit]
C=C1CC2C3CC[C@@]4(OCOC45COCO5)[C@@]3(C)C(O)CC2[C@@]2(C)CCC(=O)C=C12 (some centres undefined)	-3.6%	16.4 µM [falling, partial curve]	–
CN(c1ccc(C(=O)N2CCOCC2)cc1)S(=O)(=O)c1ccc(Cl)cc1	4.8%	0.326 µM [rising, partial curve, poor fit]	–
COC(=O)c1cc2ccsc2n1CC(=O)Nc1cc(C)cc(C)c1	144%	–	20.6 µM [rising, single point]
CC(=O)Nc1ccc(S(=O)(=O)NCCc2csc(-c3cccnc3)n2)cc1	0.289%	0.082 µM [rising, full curve, poor fit]	–
COc1cccc(CSc2nc3cc4c(cc3cc2C)OCCO4)c1	1.67%	18.4 µM [rising, single point]	–
CCN(C(=O)CSc1nc(C2CC2)n(-c2ccccc2)n1)C1CCS(=O)(=O)C1 (centres undefined)	33%	–	6.51 µM [rising, full curve, poor fit]
CCOC(=O)c1c(N)c(C#N)nn1-c1ccccc1C(=O)OC	–	1.3 µM [rising, partial curve]	1.16 µM [rising, partial curve]
Cc1cccc(N2C(=O)C3CCC(c4ccccc4)CC3C2=O)c1 (centres undefined)	16.1%	11.6 µM [rising, partial curve, poor fit]	–
COc1ccc(CCN2CC(C(=O)NCCCn3nc(C)cc3C)CCC2=O)cc1 (centres undefined)	65%	0.116 µM [falling, single point]	29.1 µM [rising, single point]
CCCCNC(=O)Nc1ccccn1	22.1%	6.51 µM [rising, single point]	4.11 µM [rising, full curve, poor fit]
CSc1oc(-c2ccco2)nc1S(=O)(=O)c1ccc(C)cc1	-7.14%	–	–

Compound	cell number change	AC50 [1]	AC50 [2]
COc1cc(S(=O)(=O)N2CCOCC2)cc(C(=O)OCC(=O)NC2CCCCC2)c1OC	35.4%	29.1 µM [rising, single point]	29.1 µM [rising, single point]
CCCC12CN3CC(C)(CN(C1)C31C(=O)Nc3ccc(C)cc31)C2=O (centres undefined)	13.7%	7.31 µM [rising, partial curve]	–
CCC(C)[C@H](NC(=O)Nc1cccc(OC)c1)C(=O)OC (some centres undefined)	-5.77%	0.116 µM [falling, single point]	–
CCOc1ccc(/C=N/NC(=O)c2cc(-c3ccco3)nc3ccccc23)cc1	-55.3%	–	29.1 µM [falling, single point]
CC1=CC(C)(C)N2C(=O)C3(C(C#N)=C(N)Oc4cc(O)ccc43)c3c(C)c(C)cc1c32 (centres undefined)	-46.3%	–	29.1 µM [falling, single point]
O=C(NC(=S)Nc1ccc(N2CCOCC2)c(Cl)c1)c1cccs1	-14.1%	0.231 µM [falling, full curve, poor fit]	–
N#Cc1cnn(-c2nc3sc4c(c3c(=O)[nH]2)CCCC4)c1N	-31.6%	18.4 µM [falling, partial curve]	0.731 µM [falling, full curve]
O=C1NC2(CCC3(CC2)OCCO3)NN1c1ccc(Cl)cc1	62.6%	–	29.1 µM [rising, single point]
CN1CCN(C(=O)c2ccccc2-c2nc(-c3ccccc3)no2)CC1	42.4%	0.517 µM [falling, partial curve, poor fit]	29.1 µM [rising, single point]
CCN(CC)C(=O)NCc1c(C)cc(C)cc1C	3.54%	–	–
CCOC(=O)c1[nH]c2ccccc2c1NC(=O)COC	15.5%	0.103 µM [falling, single point]	4.11 µM [rising, single point]
CCOC(=O)C1=C(C)NC2=C(C(=O)C(C(=O)OCC)C(c3ccco3)C2)C1c1ccccn1 (centres undefined)	3.7%	5.8 µM [rising, partial curve]	–
COc1ccc(C(=O)Oc2cccc(/C=N/NC(N)=S)c2)cc1	15.3%	6.51 µM [falling, single point]	–
COc1cccc(NC(=O)Nc2cc(NC(=O)Nc3cccc(OC)c3)c(C)nc2C)c1	-2.97%	0.651 µM [falling, single point]	–
C=CCC(C)(NCc1ccccc1)c1ccccc1 (centres undefined)	-9.41%	3.26 µM [falling, single point]	6.51 µM [falling, single point]
CCCOC(=O)Nc1nnc(CCC)s1	23.6%	–	–
CC(C)c1ccccc1OCCCCCNCCO	–	14.6 µM [falling, single point]	–
CC(NC(=O)COC(=O)c1ccco1)c1ccccc1 (centres undefined)	16.3%	1.03 µM [falling, partial curve]	2.06 µM [falling, partial curve, poor fit]

Single records, as listed above.
`COc1cccc(NC(=O)Nc2cc(NC(=O)Nc3cccc(OC)c3)c(C)nc2C)c1` as listed: cell number change: -2.97%; AC50 [1]: 0.651 µM [falling, single point]
`CCOC(=O)c1[nH]c2ccccc2c1NC(=O)COC` as listed: cell number change: 15.5%; AC50 [1]: 0.103 µM [falling, single point]; AC50 [2]: 4.11 µM [rising, single point]
`CCC(C)[C@H](NC(=O)Nc1cccc(OC)c1)C(=O)OC` (some centres undefined) as listed: cell number change: -5.77%; AC50 [1]: 0.116 µM [falling, single point]
